Data: paper PMC6376727
Results are given in words; binding and its absence hold for the method and conditions named. For some assays here: In cells and extracts the contact can be indirect. Some results given as binding are weak or reduced against the parent protein; the word gives no strength. One block for each substance: values may come before it.

Chains of the proteins cited; added tags and fusions are not shown. Residues count along the entry.
UniProt P63165, residues 1-97: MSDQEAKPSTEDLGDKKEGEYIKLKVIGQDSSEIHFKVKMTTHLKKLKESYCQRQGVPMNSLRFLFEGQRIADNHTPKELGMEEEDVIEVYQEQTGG
UniProt P63166, residues 1-97: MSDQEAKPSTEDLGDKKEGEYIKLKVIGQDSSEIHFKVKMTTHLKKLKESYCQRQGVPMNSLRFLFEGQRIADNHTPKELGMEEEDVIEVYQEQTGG
UniProt Q5I0H3, residues 1-97: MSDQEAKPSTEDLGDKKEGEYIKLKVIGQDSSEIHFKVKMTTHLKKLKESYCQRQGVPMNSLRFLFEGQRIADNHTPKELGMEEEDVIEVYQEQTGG
UniProt Q01105: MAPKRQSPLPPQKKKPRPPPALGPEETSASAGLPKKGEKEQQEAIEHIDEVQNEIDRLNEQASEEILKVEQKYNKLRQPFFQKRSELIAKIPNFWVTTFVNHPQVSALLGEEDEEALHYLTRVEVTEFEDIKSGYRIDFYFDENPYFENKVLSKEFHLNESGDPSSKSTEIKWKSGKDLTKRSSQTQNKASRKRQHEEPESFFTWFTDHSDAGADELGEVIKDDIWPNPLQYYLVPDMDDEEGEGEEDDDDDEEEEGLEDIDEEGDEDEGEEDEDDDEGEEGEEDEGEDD
UniProt Q9EQU5: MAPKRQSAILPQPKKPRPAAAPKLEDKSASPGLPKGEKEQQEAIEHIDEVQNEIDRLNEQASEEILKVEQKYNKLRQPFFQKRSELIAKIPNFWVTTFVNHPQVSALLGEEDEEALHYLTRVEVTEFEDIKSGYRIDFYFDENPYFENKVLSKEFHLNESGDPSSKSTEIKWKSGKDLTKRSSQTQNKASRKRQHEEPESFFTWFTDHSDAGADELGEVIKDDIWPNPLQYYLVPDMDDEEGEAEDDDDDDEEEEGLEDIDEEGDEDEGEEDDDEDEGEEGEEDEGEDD
UniProt Q63945: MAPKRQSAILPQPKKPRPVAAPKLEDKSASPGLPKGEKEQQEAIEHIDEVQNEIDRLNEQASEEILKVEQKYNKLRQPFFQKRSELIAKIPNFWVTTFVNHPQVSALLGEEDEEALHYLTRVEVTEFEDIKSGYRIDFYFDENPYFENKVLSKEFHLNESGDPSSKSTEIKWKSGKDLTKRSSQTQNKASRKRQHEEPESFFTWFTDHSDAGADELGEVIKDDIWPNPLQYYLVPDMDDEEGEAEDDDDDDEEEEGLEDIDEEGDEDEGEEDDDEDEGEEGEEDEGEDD

Columns and labels:
[1] = biological target: endogenous SUMO-1 (HEK-293T cells) (human (endogenous in HEK-293T)) (UniProt P63165); experiment: western blot of cell lysate (SUMO-1-conjugated band of Flag-SET); HEK-293T transfected with Flag-SET WT or K14R, K36R, K39R, K68R in the presence of UBC9; lysate blotted with anti-Flag; no precipitation
His-SUMO-1 = His-SUMO-1 (UniProt P63165); experiment: co-IP; HEK-293T co-transfected with Flag-SET (WT or K68R), His-SUMO-1 and UBC9 for 48 h; RIPA lysate; precipitated with anti-SUMO-1, blotted with anti-Flag; the band is at 52 kDa (covalent SET-SUMO-1 conjugate)
[2] = biological target: endogenous SUMO-1 (HEK-293T cells) (human (endogenous in HEK-293T)) (UniProt P63165); experiment: co-IP; HEK-293T co-transfected with Flag-SET-WT or Flag-SET-K68R and UBC9 for 48 h, endogenous SUMO-1; precipitated with anti-SUMO-1, blotted with anti-SET
[3] = biological target: endogenous SUMO-1 (mouse hippocampus) (mouse (endogenous in hippocampus)) (UniProt P63166); experiment: co-IP; hippocampal homogenates of 129 or C57 control mice and of 3xTg AD, h-Tau and APP/PS1 mice; precipitated with anti-SUMO-1, blotted with anti-SET; read as SUMOylation of SET
[4] = biological target: endogenous SUMO-1 (rat primary hippocampal neurons) (rat (endogenous in primary hippocampal neurons)) (UniProt Q5I0H3); experiment: co-IP; rat primary hippocampal neurons treated with the indicated concentrations of Abeta oligomers; lysate precipitated with anti-SUMO-1, blotted with anti-SET; band at 52 kDa

binding [1]: binds
binding (His-SUMO-1): binds
binding [2]: binds
Substance: Flag-SET-WT (from UniProt Q01105 1-290)

binding [3]: binds
Substance: endogenous SET (mouse hippocampus) (from UniProt Q9EQU5 1-289)

binding [4]: binds
Substance: endogenous SET (rat primary hippocampal neurons) (from UniProt Q63945 1-289)
